Measurements reported in PubChem BioAssay AID1259254 (NCATS, 2017).
The whole screen tested about 59,000 reagents; this is a random part of them. About 1,550 of all reagents (2.6%) count as active. 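G2 share is only a proxy for re-replication; each gene was hit by three separate siRNAs, and active genes were retested.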 The raw values are shown without normalisation. The numbers tell different reagents against one gene apart. Not stated in the record: the amount of reagent.

Screen: 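Gene knock-downs that lead to re-replication, shown by excess G2 DNA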 (primary screen)
Cell system: human HCT116 colorectal cancer cells
Reagents: single siRNA against human genes
Timing: 3 days
Measurement: 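Nuclei stained with Hoechst and imaged; cell-cycle phase assigned by DNA content; G2 share scaled per plate, non-targeting siRNA 0%, GMNN siRNA 100%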
Reading the numbers: G2 robust z-score and G2 cells, % of GMNN control: higher = more G2 cells, more excess DNA replication; raw share of cells in G2: higher = larger share of cells with G2 DNA content
Hit rule: 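An siRNA counts as active if its G2 robust z-score lies at least 5 MADs above the screen median; here such calls match roughly 38% of GMNN control or more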

| gene knocked down | siRNA no. | G2 robust z-score | G2 cells, % of GMNN control | raw share of cells in G2 (%) | outcome |
| --- | --- | --- | --- | --- | --- |
| DECR1 (2,4-dienoyl-CoA reductase 1) | 1 | -0.935 | -3.61 | 2.85 | inactive |
| DECR1 (2,4-dienoyl-CoA reductase 1) | 2 | 1.04 | 10.3 | 8.64 | inactive |
| DECR1 (2,4-dienoyl-CoA reductase 1) | 3 | -0.117 | 2.15 | 5.78 | inactive |
| TPRG1L (tumor protein p63 regulated 1 like) | 1 | 1.32 | 12.2 | 8.79 | inactive |
| TPRG1L (tumor protein p63 regulated 1 like) | 2 | -0.362 | 0.419 | 3.24 | inactive |
| TPRG1L (tumor protein p63 regulated 1 like) | 3 | -0.634 | -1.5 | 2.04 | inactive |
| EIF5A2 (eukaryotic translation initiation factor 5A2) | 1 | 0.686 | 7.79 | 7.42 | inactive |
| EIF5A2 (eukaryotic translation initiation factor 5A2) | 2 | -0.63 | -1.47 | 3.76 | inactive |
| EIF5A2 (eukaryotic translation initiation factor 5A2) | 3 | 1.17 | 11.2 | 6.57 | inactive |
| NUDT5 (nudix hydrolase 5) | 1 | -0.29 | 0.93 | 5.1 | inactive |
| NUDT5 (nudix hydrolase 5) | 2 | 0.615 | 7.3 | 6.5 | inactive |
| NUDT5 (nudix hydrolase 5) | 3 | 0.652 | 7.56 | 5.77 | inactive |
| IL2RG (interleukin 2 receptor subunit gamma) | 1 | -0.0612 | 2.54 | 5.13 | inactive |
| IL2RG (interleukin 2 receptor subunit gamma) | 2 | 1.56 | 13.9 | 11 | inactive |
| IL2RG (interleukin 2 receptor subunit gamma) | 3 | -0.277 | 1.02 | 5.41 | inactive |
| RUNDC1 (RUN domain containing 1) | 1 | -0.000571 | 2.96 | 4.82 | inactive |
| RUNDC1 (RUN domain containing 1) | 2 | 0.621 | 7.33 | 5.18 | inactive |
| RUNDC1 (RUN domain containing 1) | 3 | -0.769 | -2.44 | 2.22 | inactive |
| MYBPC3 (myosin binding protein C3) | 1 | -1.16 | -5.21 | 3.35 | inactive |
| MYBPC3 (myosin binding protein C3) | 2 | -0.339 | 0.582 | 5.7 | inactive |
| MYBPC3 (myosin binding protein C3) | 3 | 0.111 | 3.75 | 4.43 | inactive |
| GGN (gametogenetin) | 1 | 1.49 | 13.4 | 8.42 | inactive |
| GGN (gametogenetin) | 2 | 3.43 | 27.1 | 12 | inactive |
| GGN (gametogenetin) | 3 | -0.443 | -0.151 | 2.71 | inactive |
| PID1 (phosphotyrosine interaction domain containing 1) | 1 | 4.37 | 33.7 | 17.5 | inactive |
| PID1 (phosphotyrosine interaction domain containing 1) | 2 | -1.19 | -5.4 | 1.9 | inactive |
| PID1 (phosphotyrosine interaction domain containing 1) | 3 | -0.805 | -2.7 | 2.28 | inactive |

Laid out differently: entries from further up.
MYBPC3 (myosin binding protein C3) #2
- G2 robust z-score: -0.339
- G2 cells, % of GMNN control: 0.582
- raw share of cells in G2 (%): 5.7
- outcome: inactive

MYBPC3 (myosin binding protein C3) #3
- G2 robust z-score: 0.111
- G2 cells, % of GMNN control: 3.75
- raw share of cells in G2 (%): 4.43
- outcome: inactive

GGN (gametogenetin) #1
- G2 robust z-score: 1.49
- G2 cells, % of GMNN control: 13.4
- raw share of cells in G2 (%): 8.42
- outcome: inactive

GGN (gametogenetin) #2
- G2 robust z-score: 3.43
- G2 cells, % of GMNN control: 27.1
- raw share of cells in G2 (%): 12
- outcome: inactive

GGN (gametogenetin) #3
- G2 robust z-score: -0.443
- G2 cells, % of GMNN control: -0.151
- raw share of cells in G2 (%): 2.71
- outcome: inactive

PID1 (phosphotyrosine interaction domain containing 1) #1
- G2 robust z-score: 4.37
- G2 cells, % of GMNN control: 33.7
- raw share of cells in G2 (%): 17.5
- outcome: inactive

PID1 (phosphotyrosine interaction domain containing 1) #2
- G2 robust z-score: -1.19
- G2 cells, % of GMNN control: -5.4
- raw share of cells in G2 (%): 1.9
- outcome: inactive

PID1 (phosphotyrosine interaction domain containing 1) #3
- G2 robust z-score: -0.805
- G2 cells, % of GMNN control: -2.7
- raw share of cells in G2 (%): 2.28
- outcome: inactive

The results go on.
| gene knocked down | siRNA no. | G2 robust z-score | G2 cells, % of GMNN control | raw share of cells in G2 (%) | outcome |
| --- | --- | --- | --- | --- | --- |
| INSYN1 (inhibitory synaptic factor 1) | 1 | 0.0993 | 3.67 | 5.03 | inactive |
| INSYN1 (inhibitory synaptic factor 1) | 2 | -0.528 | -0.747 | 3.08 | inactive |
| INSYN1 (inhibitory synaptic factor 1) | 3 | 0.344 | 5.39 | 6.94 | inactive |
| SEC13 (SEC13 homolog, nuclear pore and COPII component) | 1 | 1.9 | 16.3 | 11.9 | inactive |
| SEC13 (SEC13 homolog, nuclear pore and COPII component) | 2 | -0.852 | -3.03 | 3.02 | inactive |
| SEC13 (SEC13 homolog, nuclear pore and COPII component) | 3 | 0.785 | 8.49 | 6.42 | inactive |
| WASHC3 (WASH complex subunit 3) | 1 | 0.251 | 4.73 | 5.66 | inactive |
| WASHC3 (WASH complex subunit 3) | 2 | -0.782 | -2.53 | 3.59 | inactive |
| WASHC3 (WASH complex subunit 3) | 3 | 0.548 | 6.83 | 5.41 | inactive |
| DRG2 (developmentally regulated GTP binding protein 2) | 1 | 2.35 | 19.5 | 10.8 | inactive |
| DRG2 (developmentally regulated GTP binding protein 2) | 2 | 1.28 | 12 | 9.36 | inactive |
| DRG2 (developmentally regulated GTP binding protein 2) | 3 | 4.67 | 35.8 | 17.7 | inactive |
| LITAF (lipopolysaccharide induced TNF factor) | 1 | -0.0321 | 2.74 | 4.44 | inactive |
| LITAF (lipopolysaccharide induced TNF factor) | 2 | 3.08 | 24.6 | 16.9 | inactive |
| LITAF (lipopolysaccharide induced TNF factor) | 3 | 0.614 | 7.28 | 6.39 | inactive |
| SLC12A9 | 1 | -0.707 | -2.01 | 5.55 | inactive |
| SLC12A9 | 2 | -0.836 | -2.91 | 3.4 | inactive |
| SLC12A9 | 3 | -0.642 | -1.55 | 3.69 | inactive |
| LINC00273 (long independently transcribed non-coding RNA 273) | 1 | -0.56 | -0.973 | 3.9 | inactive |
| LINC00273 (long independently transcribed non-coding RNA 273) | 2 | 1.49 | 13.5 | 7.95 | inactive |
| LINC00273 (long independently transcribed non-coding RNA 273) | 3 | -0.381 | 0.285 | 3.11 | inactive |
| CCDC69 (coiled-coil domain containing 69) | 1 | 0.763 | 8.34 | 7.55 | inactive |
| CCDC69 (coiled-coil domain containing 69) | 2 | 0.311 | 5.15 | 5.1 | inactive |
| CCDC69 (coiled-coil domain containing 69) | 3 | -1.02 | -4.23 | 2.82 | inactive |
| STIP1 (stress induced phosphoprotein 1) | 1 | -1.43 | -7.11 | 2.2 | inactive |
| STIP1 (stress induced phosphoprotein 1) | 2 | 1.63 | 14.5 | 10.1 | inactive |
| STIP1 (stress induced phosphoprotein 1) | 3 | -1.01 | -4.15 | 1.62 | inactive |
| DNAJC22 (DnaJ heat shock protein family (Hsp40) member C22) | 1 | -0.122 | 2.11 | 5.32 | inactive |
| DNAJC22 (DnaJ heat shock protein family (Hsp40) member C22) | 2 | 5.32 | 40.4 | 22 | active |
| DNAJC22 (DnaJ heat shock protein family (Hsp40) member C22) | 3 | 1.81 | 15.7 | 6.67 | inactive |
| APEX1 (apurinic/apyrimidinic endodeoxyribonuclease 1) | 1 | 0.773 | 8.4 | 7.58 | inactive |
| APEX1 (apurinic/apyrimidinic endodeoxyribonuclease 1) | 2 | 2.7 | 22 | 12.9 | inactive |
| APEX1 (apurinic/apyrimidinic endodeoxyribonuclease 1) | 3 | 1.56 | 13.9 | 9.18 | inactive |
| MAP10 (microtubule associated protein 10) | 1 | 4.96 | 37.8 | 17.2 | inactive |
| MAP10 (microtubule associated protein 10) | 2 | 4.19 | 32.4 | 17.9 | inactive |
| MAP10 (microtubule associated protein 10) | 3 | -1.02 | -4.23 | 1.79 | inactive |
| MAGEE2 (MAGE family member E2) | 1 | 0.0278 | 3.16 | 5.37 | inactive |
| MAGEE2 (MAGE family member E2) | 2 | -0.792 | -2.6 | 2.28 | inactive |
| MAGEE2 (MAGE family member E2) | 3 | 2.12 | 17.9 | 9.05 | inactive |
| PPP4R2 (protein phosphatase 4 regulatory subunit 2) | 1 | -0.743 | -2.26 | 3.75 | inactive |
| PPP4R2 (protein phosphatase 4 regulatory subunit 2) | 2 | -1.54 | -7.84 | 2.22 | inactive |
| PPP4R2 (protein phosphatase 4 regulatory subunit 2) | 3 | 1.85 | 16 | 10.5 | inactive |
